Measured values taken from patent US20080175801A1, “Stable peroxide containing personal care compositions” (The Procter & Gamble Company, priority 2007, published 2008).

Assay: Chemiluminescence assay (luminol or L-012) of Relative Radical Forming Potential of metals with peroxide
Settings: for Relative Radical Forming Potential (RRFP): % increase of chemiluminescence signal vs. control, sum over 10 ug/ml to 0.0001 ug/ml of metal; for RRFPI (RRFP index relative to Co = 100): assigned 100

## [Co] [Co, Cobalt]
  Relative Radical Forming Potential (RRFP): 503.87%
  RRFPI (RRFP index relative to Co = 100): 100

## [Cr] [Cr, Chromium]
  Relative Radical Forming Potential (RRFP): 8.92%
  RRFPI (RRFP index relative to Co = 100): 1.77

## [Cu] [Cu, Copper]
  Relative Radical Forming Potential (RRFP): 340.13%
  RRFPI (RRFP index relative to Co = 100): 67.5

## [Mn+2] [Mn, Manganese]
  Relative Radical Forming Potential (RRFP): 13.95%
  RRFPI (RRFP index relative to Co = 100): 2.76

## [Mo] [Mo, Molybdnenum]
  Relative Radical Forming Potential (RRFP): 7.52%
  RRFPI (RRFP index relative to Co = 100): 1.49

## [Ni] [Ni, Nickel]
  Relative Radical Forming Potential (RRFP): 188.64%
  RRFPI (RRFP index relative to Co = 100): 37.43

## [Pd] [Pd, Palladium]
  Relative Radical Forming Potential (RRFP): 231.58%
  RRFPI (RRFP index relative to Co = 100): 45.96

## [Pt] [Pt, Platinum]
  Relative Radical Forming Potential (RRFP): 6.99%
  RRFPI (RRFP index relative to Co = 100): 1.38
